Measured values published in the supplement of paper PMC12823440, “Inhibitors supercharge kinase turnover through native proteolytic circuits” (Nature, 2025).
Counter-ions that a name gives are not always drawn. The list shows a part of the results. Hit calls seldom repeat between salt and free forms of one compound.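 Kinases, fused to nanoluciferase, were expressed in K562 cells; luminescence was measured every 4 h from 2 to 18 h as percent of control (DMSO = 100%, positive control = 0%). A time point is decreased if signal falls significantly (2 sigma). Hits were called by the authors by a rule that is not shown; the count of time points alone does not decide it.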

By UniProt entry, the sequences of proteins in these tests, tags left out. Where a name states a change or a piece, a line headed by the entry shows the natural chain unless it says otherwise.
UniProt Q9Y616: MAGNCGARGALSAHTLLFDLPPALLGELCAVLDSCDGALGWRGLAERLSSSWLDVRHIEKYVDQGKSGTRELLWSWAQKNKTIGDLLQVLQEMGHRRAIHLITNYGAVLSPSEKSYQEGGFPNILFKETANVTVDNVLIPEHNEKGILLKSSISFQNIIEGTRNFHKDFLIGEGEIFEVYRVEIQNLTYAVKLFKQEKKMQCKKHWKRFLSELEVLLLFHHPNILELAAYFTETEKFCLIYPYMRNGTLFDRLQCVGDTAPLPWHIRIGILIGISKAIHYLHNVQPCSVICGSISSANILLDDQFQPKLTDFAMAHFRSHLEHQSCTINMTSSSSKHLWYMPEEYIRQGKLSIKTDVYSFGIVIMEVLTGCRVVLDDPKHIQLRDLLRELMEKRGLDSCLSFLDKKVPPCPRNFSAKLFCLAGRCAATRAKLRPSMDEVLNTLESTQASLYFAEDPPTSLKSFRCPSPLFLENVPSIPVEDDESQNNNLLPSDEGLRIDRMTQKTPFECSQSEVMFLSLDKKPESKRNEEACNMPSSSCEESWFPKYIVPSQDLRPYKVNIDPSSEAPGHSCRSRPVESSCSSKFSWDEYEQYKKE

molecular target: IRAK3 (UniProt Q9Y616); test: number of time points (of 5) at which kinase-Nluc abundance scored as decreased, DMSO-normalised (count); higher = more persistent destabilization; settings: K562; 2-18 h

| Structure (SMILES) | number of time points |
| --- | --- |
| Cc1cnc(Cl)nc1-c1ccc(N(Cc2ccc(CNC(=O)C(F)F)cc2)C(=O)c2ccc(O)cc2O)cc1 (10 µM) | 0 |
| COc1cc2c(cc1OC)[C@@H]1C(=O)c3ccc4c(c3O[C@@H]1CO2)C=CC(C)(C)O4 [Deguelin] (10 µM) | 0 |
| CC(C)(CCCCCC(O)CCCCCC(C)(C)C(=O)O)C(=O)O [Bempedoic acid] (10 µM) | 0 |
| COc1cc2nnc(C(N)=O)c(Nc3ccc(C)cc3F)c2cc1N1CCN(CCO)CC1 (2.5 µM) | 0 |
| O=C(Nc1ccc(Cl)cc1)C1CN(C(=O)c2cccc(-c3ccco3)c2)CC(F)(F)C1 (stereo not drawn) (2.5 µM) | 0 |
| CC(=O)O[C@@H]1[C@@H](OC(C)=O)[C@@H](O)[C@H](Oc2c(-c3ccc(O)cc3)oc3cc(O)cc(O)c3c2=O)O[C@H]1C (10 µM) | 0 |
| COc1cc2nc(-c3cc(F)ccc3O)nc(N[C@@H]3CNC[C@H]3C(C)(C)O)c2cc1OC (2.5 µM) | 0 |
| C=CC(=O)Nc1cccc(Oc2nc(Nc3ccc(N4CCN(C)CC4)cc3OC)ncc2Cl)c1 (10 µM) | 0 |
| C=CC(=O)Nc1cc(Nc2nccc(-c3cn(C)c4ccccc34)n2)c(OCC(F)(F)F)nc1N(C)CCNC [AST5902  (trimesylate)] (2.5 µM) | 0 |
| O=C1C=CC2=C3c4cc(O)c(O)cc4CC3(O)COC2=C1O (stereo not drawn) [Hematein] (10 µM) | 0 |
| CCC(F)(F)c1cc(N2CCC(S(C)(=O)=O)CC2)nc2sc(C(N)=O)c(N)c12 (10 µM) | 0 |
| Cn1cc(C2=C(c3ccc(Cl)cc3Cl)C(=O)NC2=O)c2ccccc21 (10 µM) | 0 |
| CCOC(=O)c1c(N2CCc3ccc(OC)cc3C2)oc(C=C2C=Nc3ncccc32)c1O (10 µM) | 0 |
| O=C(COc1ccc(Cl)cc1)NC1CCC(NC(=O)COc2ccc(Cl)cc2)CC1 (stereo not drawn) [ISRIB (trans-isomer)] (10 µM) | 0 |
| COc1ccc(CCNCc2ccc(OCc3ccc(Cl)nc3)c(OC)c2)cc1OC [SBE13 (Hydrochloride)] (10 µM) | 0 |
| Cc1cccc(CC(=O)N2CCc3c2ccc(-c2cn(C)c4ncnc(N)c24)c3F)n1 (10 µM) | 0 |
| COc1cc(N2CCC(N3CCN(C)CC3)CC2)ccc1Nc1ncnc(Nc2ccccc2S(=O)(=O)C(C)C)n1 (10 µM) | 0 |
| CC(C)(Oc1ccc(Cl)cc1)C(=O)Nc1ccc(OCc2ccc(C#N)cc2)cc1 [AMPK activator 4] (10 µM) | 0 |
| Cc1cc(N2CCOCC2)ccc1Nc1nc(NC2CCCCC2)c2[nH]cnc2n1 (10 µM) | 0 |

Single entries from the list:
Under number of time points, Cc1cnc(Cl)nc1-c1ccc(N(Cc2ccc(CNC(=O)C(F)F)cc2)C(=O)c2ccc(O)cc2O)cc1 (10 µM) shows 0
Under number of time points, COc1cc2nnc(C(N)=O)c(Nc3ccc(C)cc3F)c2cc1N1CCN(CCO)CC1 (2.5 µM) shows 0

Next entries:

| Structure (SMILES) | number of time points |
| --- | --- |
| COC(=O)N1CCN(C2CCC(Nc3nc(Nc4cnn(C)c4)nc4ccc(CC#N)nc34)CC2)CC1 (stereo not drawn) (10 µM) | 0 |
| CN(C)CCn1cc2cc(NC(=O)c3cccc(C(F)(F)F)n3)c(C(C)(C)O)cc2n1 (10 µM) | 0 |
| CCOc1cc(N2CCC(O)CC2)ccc1Nc1ncc2c(n1)N(C1CCCC1)CCC(=O)N2C (2.5 µM) | 0 |
| CCC[C@H](C)Oc1nc(N)c2[nH]c(=O)n(CCCCCN3CCCCC3)c2n1 (10 µM) | 0 |
| Fc1ccc(-c2nc3n(c2-c2ccncc2)CCS3)cc1 (10 µM) | 0 |
| CC(ONC(=O)c1cc(C(F)(F)F)cc(C(F)(F)F)c1)C(=O)Nc1ccc(Cl)cc1 (stereo not drawn) (2.5 µM) | 0 |
| O=C(Nc1ccccc1C(=O)NC1CCCCNC1=O)c1cc2ccccc2s1 (stereo not drawn) (10 µM) | 0 |
| N#CC(=C(/N)Sc1ccccc1N)/C(C#N)=C(\N)Sc1ccccc1N (10 µM) | 0 |
| Nc1ccc(O)c(C(=O)O)c1 [5-Aminosalicylic Acid] (10 µM) | 0 |
| CNCc1ccccc1Sc1cccc2ccccc12 [IFN alpha-IFNAR-IN-1 (hydrochloride)] (10 µM) | 1 |
| CCCCNc1ncc2c(-c3ccc(F)cc3)nn(CC3CCC(N)CC3)c2n1 (stereo not drawn) (2.5 µM) | 0 |
| Cc1ncsc1-c1ccc(CNC(=O)[C@@H]2C[C@@H](O)CN2C(=O)[C@@H](NC(=O)COCCOc2ccc(-c3cc(Nc4ccc(OC(F)(F)F)cc4)ncn3)cc2)C(C)(C)C)cc1 (2.5 µM) | 2 |
| Cn1cnc2c(F)c(Nc3ccc(Br)cc3F)c(C(=O)NOCCO)cc21 [Binimetinib] (10 µM) | 0 |
| O=C1NC(=O)C(Cc2c[nH]c3c(Cl)cccc23)N1 (stereo not drawn) [Necroptosis-IN-1] (10 µM) | 0 |
| C=CC(=O)N1CCC(c2ccc(C(N)=O)c(-c3ccc(Oc4ccccc4)cc3)n2)CC1 [Orelabrutinib] (2.5 µM) | 0 |
| CN1C(=O)N[C@@H](Cc2c[nH]c3c(Cl)cccc23)C1=O [Necrostatin 2 (S enantiomer)] (10 µM) | 0 |
| N#Cc1cc(-c2ccnc(Nc3ccc(N4CCOCC4)cc3)n2)ccc1OC1CCOCC1 (10 µM) | 0 |
| COc1cccc(-c2cc(=O)c3ccccc3o2)c1N (10 µM) | 0 |
| Nc1ccc(Sc2nc3ccccc3s2)c(Cl)c1 [KRAS inhibitor-9] (10 µM) | 0 |
